Data from patent US20190323012.

By UniProt entry, the sequences of proteins in these tests, tags left out. Residues count along the entry.
UniProt P01375, 77-233: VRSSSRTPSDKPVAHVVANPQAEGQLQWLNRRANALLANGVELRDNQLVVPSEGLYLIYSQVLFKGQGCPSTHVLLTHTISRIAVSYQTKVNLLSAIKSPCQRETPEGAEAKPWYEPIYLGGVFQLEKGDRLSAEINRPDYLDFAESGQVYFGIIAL

Key:
[1] = biological target: T1, IGF-BP1 (insulin-like growth factor-binding protein 1) (UniProt P08833); test: SPR; conditions: 2'-F on all C and U; specificity control; seldom bound; purified recombinant protein; protein details: ThermoFisher
T1 sequence (looked up, limits assumed): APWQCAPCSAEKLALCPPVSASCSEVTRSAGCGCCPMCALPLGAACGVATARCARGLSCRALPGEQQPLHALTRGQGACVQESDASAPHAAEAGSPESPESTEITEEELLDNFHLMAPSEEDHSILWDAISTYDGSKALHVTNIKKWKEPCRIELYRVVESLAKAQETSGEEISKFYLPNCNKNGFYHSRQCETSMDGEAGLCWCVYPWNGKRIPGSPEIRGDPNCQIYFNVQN

TNF-alpha (Homo sapiens) [2] = biological target: TNF-alpha (Homo sapiens) (UniProt P01375); test: activity in cells; conditions: 2'-F on all C and U, inhibits TNF-alpha induced NO generation in RAW 264.7 cells at 2 ug/mL, TNF-alpha species not stated in this assay, purified recombinant protein
TNF-alpha (Homo sapiens) [3] = biological target: TNF-alpha (Homo sapiens) (UniProt P01375); test: ELONA; conditions: 2'-F on all C and U; plate-based binding assay, average of five experiments; reported as binding affinity; DPBS, 0.1% BSA, room temperature; purified recombinant protein
TNF-alpha (Homo sapiens) [4] = biological target: TNF-alpha (Homo sapiens) (UniProt P01375); test: EMSA; conditions: 2'-F on all C and U; 30 mM Tris-HCl pH 7.5, 150 mM NaCl, 1.5 mM MgCl2, 2 mM DTT, tRNA, room temperature; radiolabeled RNA 50 pM; purified recombinant protein

## GCGGAAGCGUGCUGGGCCCGGCUUGCAGGUCGCCGAAAUGACCGCACACAUAACCCAGAGGUCGAU [ATK007]
[1]
  binding result: no binding
TNF-alpha (Homo sapiens) [2]; similar to anti-TNF-alpha mAb
  functional effect of the aptamer: active
TNF-alpha (Homo sapiens) [3]
  Kd: 0.03 µM

## GGGAGGACGAUGCGGCCACUGGCUAGGAACUCGAGUACUGGGUGGCAGACGACUCGCCCGA [ATK001]
TNF-alpha (Homo sapiens) [4]
  Kd: 0.018 µM
[1]
  binding result: no binding
TNF-alpha (Homo sapiens) [2]
  functional effect of the aptamer: active
TNF-alpha (Homo sapiens) [3]
  Kd: 0.043 µM

For some of these results: The exact form of at least one protein or probe is not confirmed. For some of these results: Negatives hold for the conditions tested. For some of these results: Protein sequences can lack the tags named with them.
